Results published in paper PMC4411673.
No constants are given. Whether binding was seen depends on the method and setting. For some of these results: Binding seen in cells or lysates may run through a third protein. Some results given as binding are weak or reduced against the parent protein; the word gives no strength. For some of these results: Sequences can lack the tags named with a protein.

Tests used:
[1] = target: T1, Prototype foamy virus (PFV) transactivator Tas, full length, in pGBKT7 (two-hybrid bait) (prototype foamy virus (PFV)) (UniProt P14353); assay: two-hybrid
T1 sequence: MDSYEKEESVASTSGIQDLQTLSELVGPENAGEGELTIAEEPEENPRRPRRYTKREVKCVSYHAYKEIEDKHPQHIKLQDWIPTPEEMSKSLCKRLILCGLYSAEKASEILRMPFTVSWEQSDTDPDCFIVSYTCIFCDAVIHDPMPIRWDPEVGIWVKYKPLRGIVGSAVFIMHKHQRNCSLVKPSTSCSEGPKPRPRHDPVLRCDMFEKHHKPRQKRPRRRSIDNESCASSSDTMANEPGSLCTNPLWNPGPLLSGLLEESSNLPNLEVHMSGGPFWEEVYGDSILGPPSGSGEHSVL

[2] = target: T2, myc-Tas (prototype foamy virus (PFV)) (UniProt P14353); assay: co-IP
T2 sequence: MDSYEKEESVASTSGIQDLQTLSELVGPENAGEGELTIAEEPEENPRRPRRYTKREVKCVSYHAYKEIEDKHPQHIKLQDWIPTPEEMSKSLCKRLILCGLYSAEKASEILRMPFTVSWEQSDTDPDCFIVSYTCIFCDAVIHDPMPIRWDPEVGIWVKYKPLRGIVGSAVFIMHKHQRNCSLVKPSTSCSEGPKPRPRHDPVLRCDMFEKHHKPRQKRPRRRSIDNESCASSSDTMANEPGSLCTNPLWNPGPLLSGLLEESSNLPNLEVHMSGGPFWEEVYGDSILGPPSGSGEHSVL

Flag-Pirh2 (human) = target: T3, Flag-Pirh2 (human) (UniProt Q96PM5); assay: co-IP
T3 sequence: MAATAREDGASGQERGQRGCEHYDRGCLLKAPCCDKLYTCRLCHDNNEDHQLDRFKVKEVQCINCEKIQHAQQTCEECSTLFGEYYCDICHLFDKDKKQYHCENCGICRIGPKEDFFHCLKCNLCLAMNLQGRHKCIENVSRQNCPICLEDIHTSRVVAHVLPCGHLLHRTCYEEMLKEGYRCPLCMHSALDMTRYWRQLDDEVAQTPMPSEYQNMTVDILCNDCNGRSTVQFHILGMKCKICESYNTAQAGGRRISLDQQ

[3] = target: T4, GST-Tas (prototype foamy virus (PFV)) (UniProt P14353); assay: pull-down; both purified
T4 sequence: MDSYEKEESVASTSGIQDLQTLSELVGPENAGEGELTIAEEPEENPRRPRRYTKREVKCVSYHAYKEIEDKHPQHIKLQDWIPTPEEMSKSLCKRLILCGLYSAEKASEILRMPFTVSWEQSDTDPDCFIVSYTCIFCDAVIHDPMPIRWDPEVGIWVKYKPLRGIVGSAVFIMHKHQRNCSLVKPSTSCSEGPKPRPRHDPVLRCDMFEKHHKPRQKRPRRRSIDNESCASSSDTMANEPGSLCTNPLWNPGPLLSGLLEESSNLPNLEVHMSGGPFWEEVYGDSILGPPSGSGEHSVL

B1: Human p53-induced RING-H2 protein (Pirh2), full-length clone from the human 293T cDNA library (two-hybrid prey) (protein, UniProt Q96PM5 1-261)
chain: MAATAREDGASGQERGQRGCEHYDRGCLLKAPCCDKLYTCRLCHDNNEDHQLDRFKVKEVQCINCEKIQHAQQTCEECSTLFGEYYCDICHLFDKDKKQYHCENCGICRIGPKEDFFHCLKCNLCLAMNLQGRHKCIENVSRQNCPICLEDIHTSRVVAHVLPCGHLLHRTCYEEMLKEGYRCPLCMHSALDMTRYWRQLDDEVAQTPMPSEYQNMTVDILCNDCNGRSTVQFHILGMKCKICESYNTAQAGGRRISLDQQ
With B1 the binding [1] was “binds”.

B2: Flag-Pirh2 (protein, UniProt Q96PM5 1-261)
chain: MAATAREDGASGQERGQRGCEHYDRGCLLKAPCCDKLYTCRLCHDNNEDHQLDRFKVKEVQCINCEKIQHAQQTCEECSTLFGEYYCDICHLFDKDKKQYHCENCGICRIGPKEDFFHCLKCNLCLAMNLQGRHKCIENVSRQNCPICLEDIHTSRVVAHVLPCGHLLHRTCYEEMLKEGYRCPLCMHSALDMTRYWRQLDDEVAQTPMPSEYQNMTVDILCNDCNGRSTVQFHILGMKCKICESYNTAQAGGRRISLDQQ
With B2 the binding [2] was “binds”.

B3: myc-Tas (protein, UniProt P14353 1-300)
chain: MDSYEKEESVASTSGIQDLQTLSELVGPENAGEGELTIAEEPEENPRRPRRYTKREVKCVSYHAYKEIEDKHPQHIKLQDWIPTPEEMSKSLCKRLILCGLYSAEKASEILRMPFTVSWEQSDTDPDCFIVSYTCIFCDAVIHDPMPIRWDPEVGIWVKYKPLRGIVGSAVFIMHKHQRNCSLVKPSTSCSEGPKPRPRHDPVLRCDMFEKHHKPRQKRPRRRSIDNESCASSSDTMANEPGSLCTNPLWNPGPLLSGLLEESSNLPNLEVHMSGGPFWEEVYGDSILGPPSGSGEHSVL
With B3 the binding (Flag-Pirh2 (human)) was “binds”.

B4: MBP-Pirh2 (protein, UniProt Q96PM5 1-261)
chain: MAATAREDGASGQERGQRGCEHYDRGCLLKAPCCDKLYTCRLCHDNNEDHQLDRFKVKEVQCINCEKIQHAQQTCEECSTLFGEYYCDICHLFDKDKKQYHCENCGICRIGPKEDFFHCLKCNLCLAMNLQGRHKCIENVSRQNCPICLEDIHTSRVVAHVLPCGHLLHRTCYEEMLKEGYRCPLCMHSALDMTRYWRQLDDEVAQTPMPSEYQNMTVDILCNDCNGRSTVQFHILGMKCKICESYNTAQAGGRRISLDQQ
In the case of B4, the binding [3] is reported as “binds”.
